Experimental data reported in paper PMC7527347.
Results are given in words; binding and its absence hold for the method and conditions named. In cells and extracts the contact can be indirect. Where a sequence is shown, tags or fusion partners need not be part of it.

Sequences of proteins named here, by UniProt entry; tags and fusion partners are left off. Residues count along the entry.
UniProt P19838, residues 1-433: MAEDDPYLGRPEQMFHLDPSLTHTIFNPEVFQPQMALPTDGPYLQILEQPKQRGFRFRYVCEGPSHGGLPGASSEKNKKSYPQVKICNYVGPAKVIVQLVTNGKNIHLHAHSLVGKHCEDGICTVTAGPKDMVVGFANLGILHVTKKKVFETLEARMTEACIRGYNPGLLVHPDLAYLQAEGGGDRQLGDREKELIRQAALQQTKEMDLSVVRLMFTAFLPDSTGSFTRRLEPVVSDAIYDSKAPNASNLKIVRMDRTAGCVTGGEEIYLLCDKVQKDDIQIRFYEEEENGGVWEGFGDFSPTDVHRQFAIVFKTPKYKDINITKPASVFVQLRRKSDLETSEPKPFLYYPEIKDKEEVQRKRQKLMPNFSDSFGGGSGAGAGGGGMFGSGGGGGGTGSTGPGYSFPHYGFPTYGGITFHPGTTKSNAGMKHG
UniProt Q04206: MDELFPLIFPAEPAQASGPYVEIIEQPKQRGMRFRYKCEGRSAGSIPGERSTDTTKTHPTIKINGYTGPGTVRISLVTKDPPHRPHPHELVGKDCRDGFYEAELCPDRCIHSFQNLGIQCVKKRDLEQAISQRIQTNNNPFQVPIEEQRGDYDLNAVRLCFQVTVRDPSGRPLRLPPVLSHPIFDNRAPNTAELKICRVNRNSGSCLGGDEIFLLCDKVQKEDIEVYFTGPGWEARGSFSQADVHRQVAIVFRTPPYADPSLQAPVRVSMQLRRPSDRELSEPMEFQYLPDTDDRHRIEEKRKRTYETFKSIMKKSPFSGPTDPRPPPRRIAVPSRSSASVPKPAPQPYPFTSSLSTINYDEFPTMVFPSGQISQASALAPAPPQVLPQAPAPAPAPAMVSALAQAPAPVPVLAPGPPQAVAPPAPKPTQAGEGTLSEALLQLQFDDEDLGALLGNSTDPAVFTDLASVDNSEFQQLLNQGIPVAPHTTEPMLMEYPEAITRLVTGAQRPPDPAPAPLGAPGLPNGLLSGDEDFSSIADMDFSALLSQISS

How the values were obtained:
[1] = biological target: NF-κB p50 (human (endogenous in HEK-293T)) (UniProt P19838); assay: co-IP; extracts from HEK-293T cells transfected with the HA-tagged proteins; association with p65/RelA and p50 read by Western blot
[2] = biological target: NF-κB p65/RelA (human (endogenous in HEK-293T)) (UniProt Q04206); assay: as above

binding [1]: no binding
binding [2]: no binding
B1: HA-tagged NFKI-1 (protein, UniProt G5EDE9 1-611)
chain: MATVAPKGNCLVARAIPSDSHADQLTDLLCKLSVNGDANQKSVNKFESQHGVTPSDFRDIQNIRSSALAKKTKTSKFQLDGVTLFADLTPNSKSKKKTENQETKEKDEEAEEKKDGPPKDDKELKMKKEKEQEDENAELDEQKKDGDLLGRGPVHNVRVATGGSHPYHRAQIPYGCAAQTPITDISAYTGYGSGYECGSTWSLSPDTTIGSISASTTPDTVLSSDGYGSASPPQHSPKESLQSPFSDISSADTSRVLTPENNELPESLQDFILQYSNQYTKEESIRGRPPSADSGVSSPMSARSAPYASPHVPQGTCSGPTTPSFNQTRLSPRTSENGITAKQRLNAIIPESDLATGFHWACTTWKNVLTNRDADGDTPLHIVAAHNDLGKIYALCETLRKTMNENDDNVFNVSNNFGETPLYVAVLQRSIEVVEYLLELGASPNSRSSRAVGDSPLHFATARGMNNMVEALLSKREIRVNETNDDGQTSLLCAVKMHGMMDEQTQHKIDNKSIIEMLIKAGADPTIAETSTGKTIVHHAVDKMDVELLDFLKTVVNEDTFTELANLSDFHGDTAVDLLCSSTQNEDTNNVRENLYIRLLTSGAVPNKSRA
